Only a part is listed here, and it is no random draw. At the low end of the ranking the order means little.

Holding throughout (test): DAPPL (digital affinity profiling via proximity ligation, sequencing)
Settings in all cases: 10 mM Tris-HCl pH 7.5, 50 mM NaCl, 1 mM DTT, 4% glycerol, room temperature, 30 min; GST-TFs on glutathione beads, 16-mer random dsDNA library, 0.1% …; high values mean tight binding; double strand, one strand shown; scale: fold enrichment (6-mer frequency, TF over GST control)

One test addresses T1, ELK1 (UniProt P19419).
T1 sequence: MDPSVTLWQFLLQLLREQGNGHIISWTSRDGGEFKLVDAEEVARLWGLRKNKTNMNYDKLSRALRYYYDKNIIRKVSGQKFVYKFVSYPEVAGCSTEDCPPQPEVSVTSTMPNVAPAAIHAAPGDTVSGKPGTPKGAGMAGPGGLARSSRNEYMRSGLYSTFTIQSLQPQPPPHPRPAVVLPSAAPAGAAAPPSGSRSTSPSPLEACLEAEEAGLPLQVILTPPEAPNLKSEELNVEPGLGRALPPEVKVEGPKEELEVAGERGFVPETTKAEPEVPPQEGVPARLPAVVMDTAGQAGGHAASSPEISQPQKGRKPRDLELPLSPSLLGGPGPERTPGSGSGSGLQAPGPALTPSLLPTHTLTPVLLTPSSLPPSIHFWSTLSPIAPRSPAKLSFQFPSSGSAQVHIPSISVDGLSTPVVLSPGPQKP

A further test deals with T2, ELK3 (UniProt P41970).
T2 sequence: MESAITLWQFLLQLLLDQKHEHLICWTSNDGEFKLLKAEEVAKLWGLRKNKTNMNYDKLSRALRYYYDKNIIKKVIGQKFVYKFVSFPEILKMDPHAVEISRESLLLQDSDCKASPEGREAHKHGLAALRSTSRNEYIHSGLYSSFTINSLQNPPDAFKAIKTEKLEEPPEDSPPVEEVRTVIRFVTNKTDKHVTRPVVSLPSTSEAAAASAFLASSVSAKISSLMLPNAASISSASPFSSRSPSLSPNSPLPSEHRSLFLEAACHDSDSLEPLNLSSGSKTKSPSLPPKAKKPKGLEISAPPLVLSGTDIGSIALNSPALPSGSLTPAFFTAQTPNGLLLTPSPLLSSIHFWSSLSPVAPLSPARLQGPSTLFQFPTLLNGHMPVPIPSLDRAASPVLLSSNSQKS

Another test has as its target T3, SPIC (UniProt Q8N5J4).
T3 sequence: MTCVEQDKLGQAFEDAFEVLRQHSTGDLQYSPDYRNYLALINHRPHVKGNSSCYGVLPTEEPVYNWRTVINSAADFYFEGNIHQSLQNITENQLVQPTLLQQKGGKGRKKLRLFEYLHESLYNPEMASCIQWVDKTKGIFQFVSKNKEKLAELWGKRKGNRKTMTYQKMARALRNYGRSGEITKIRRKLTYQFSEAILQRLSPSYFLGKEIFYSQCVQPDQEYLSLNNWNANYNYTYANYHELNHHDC

In another test the target is T4, ETS2 (UniProt P15036).
T4 sequence: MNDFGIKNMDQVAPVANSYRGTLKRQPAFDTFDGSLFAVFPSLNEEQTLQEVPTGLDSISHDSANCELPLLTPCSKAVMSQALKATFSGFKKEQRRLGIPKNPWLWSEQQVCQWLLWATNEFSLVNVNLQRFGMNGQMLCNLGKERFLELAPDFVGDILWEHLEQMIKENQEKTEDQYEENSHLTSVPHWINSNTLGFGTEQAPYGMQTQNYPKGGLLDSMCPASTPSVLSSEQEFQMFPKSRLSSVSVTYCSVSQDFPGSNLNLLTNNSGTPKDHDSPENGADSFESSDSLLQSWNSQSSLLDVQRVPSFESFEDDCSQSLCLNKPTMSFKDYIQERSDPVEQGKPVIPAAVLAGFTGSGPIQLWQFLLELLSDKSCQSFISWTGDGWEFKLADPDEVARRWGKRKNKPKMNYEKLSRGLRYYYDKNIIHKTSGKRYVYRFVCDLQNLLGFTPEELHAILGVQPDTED

Another test deals with T5, ETV3 (UniProt P41162-2).
T5 sequence: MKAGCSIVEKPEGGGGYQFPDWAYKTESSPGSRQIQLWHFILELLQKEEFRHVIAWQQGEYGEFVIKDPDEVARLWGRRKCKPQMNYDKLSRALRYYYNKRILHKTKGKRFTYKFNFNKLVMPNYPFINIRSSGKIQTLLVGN

For CCCGTG, the binding signal with ELK1 amounted to 0.527; with ELK3 it was 0.549; with SPIC it was 0.438; in the test with ETS2, 0.514; with ETV3, 0.576.

As for GAGCTG, the binding signal with ELK1 is 0.725; with ELK3 it was 0.679; in the test with SPIC it was 0.734; with ETS2, 0.682; in the test with ETV3, 0.775.

In the case of GTCGCG, the binding signal is 0.672 with ELK1; 0.601 with ELK3; 0.705 in the test with SPIC; 0.639 with ETS2; 0.617 with ETV3.

Turning to GACGGC, the binding signal with ELK1 was 0.787; with ELK3 it was 0.739; with SPIC, 0.822; with ETS2, 0.818; with ETV3, 0.777.

In the case of GTTGGA, the binding signal with ELK1 was determined as 0.489; in the test with ELK3, 0.495; with SPIC, 0.421; with ETS2 it was 0.484; with ETV3, 0.471.

On to CAGGCA, for which the binding signal turned out to be 0.742 with ELK1; 0.699 with ELK3; 0.877 with SPIC; 0.713 with ETS2; 0.772 with ETV3.

As for AGAGTC, the binding signal was 0.45 in the test with ELK1; 0.423 in the test with ELK3; 0.402 with SPIC; 0.432 with ETS2; 0.459 with ETV3.

In the case of GGACTG, the binding signal with ELK1 amounted to 0.73; with ELK3, 0.632; with SPIC, 0.647; with ETS2 it was 0.63; with ETV3, 0.717.

CAAGAC: the binding signal came to 0.862 with ELK1; 0.822 in the test with ELK3; 0.853 with SPIC; 0.834 in the test with ETS2; 0.816 with ETV3.

Regarding GGCAGA, the binding signal in the test with ELK1 was determined as 0.619; with ELK3 it was 0.576; in the test with SPIC it was 0.752; in the test with ETS2, 0.651; with ETV3 it was 0.662.

On to GTGCCA, for which the binding signal was 0.799 in the test with ELK1; 0.833 with ELK3; 0.92 in the test with SPIC; 0.766 in the test with ETS2; 0.802 with ETV3.

On to GGTGCG, for which the binding signal came to 0.627 with ELK1; 0.579 with ELK3; 0.455 with SPIC; 0.653 with ETS2; 0.576 with ETV3.

With GACAAA, the binding signal was 0.992 with ELK1; 0.902 in the test with ELK3; 0.898 with SPIC; 0.952 in the test with ETS2; 0.899 with ETV3.

Regarding AGTGGA, the binding signal was 0.724 with ELK1; 0.867 with ELK3; 0.856 with SPIC; 0.811 with ETS2; 0.799 in the test with ETV3.

For the sequence AACGGG, the binding signal was found to be 0.697 with ELK1; 0.722 with ELK3; 0.635 with SPIC; 0.692 in the test with ETS2; 0.788 in the test with ETV3.

As to CGGTAA, the binding signal in the test with ELK1 turned out to be 0.975; with ELK3, 0.866; with SPIC it was 0.952; in the test with ETS2 it was 0.917; in the test with ETV3 it was 0.971.

As to AGCCCG, the binding signal with ELK1 came out at 0.851; in the test with ELK3, 0.865; with SPIC it was 0.855; in the test with ETS2 it was 0.816; in the test with ETV3 it was 0.935.

In the case of TACCAG, the binding signal amounted to 0.886 with ELK1; 0.869 with ELK3; 0.843 with SPIC; 0.845 with ETS2; 0.791 with ETV3.

As for GTGCGG, the binding signal with ELK1 was 0.675; in the test with ELK3, 0.556; with SPIC, 0.588; with ETS2 it was 0.643; in the test with ETV3, 0.715.

On to CCGTGT, for which the binding signal in the test with ELK1 is 0.498; with ELK3, 0.495; in the test with SPIC, 0.435; with ETS2, 0.514; with ETV3 it was 0.551.

Consider TGTGGG, for which the binding signal in the test with ELK1 is 0.882; with ELK3, 0.79; in the test with SPIC it was 0.923; in the test with ETS2 it was 0.913; in the test with ETV3 it was 0.846.

Consider GGCGCG, for which the binding signal is 0.623 with ELK1; 0.584 with ELK3; 0.69 with SPIC; 0.634 with ETS2; 0.637 in the test with ETV3.

Turning to GGTAGC, the binding signal in the test with ELK1 is 0.879; with ELK3, 0.827; with SPIC, 0.798; in the test with ETS2, 0.764; with ETV3, 0.848.

AGGCTG: the binding signal worked out at 0.661 in the test with ELK1; 0.642 with ELK3; 0.644 with SPIC; 0.695 in the test with ETS2; 0.64 with ETV3.

As for GTGGGA, the binding signal with ELK1 came out at 0.604; with ELK3 it was 0.571; with SPIC it was 0.646; in the test with ETS2, 0.595; with ETV3, 0.532.

For the sequence CAGGAG, the binding signal in the test with ELK1 is 0.248; with ELK3, 0.267; in the test with SPIC it was 0.286; with ETS2, 0.269; with ETV3, 0.237.

Consider AAAGTG, for which the binding signal in the test with ELK1 was determined as 0.939; in the test with ELK3, 0.953; with SPIC it was 0.798; with ETS2 it was 0.902; with ETV3, 0.902.

Consider GACACG, for which the binding signal amounted to 0.711 in the test with ELK1; 0.678 in the test with ELK3; 0.65 with SPIC; 0.729 with ETS2; 0.686 with ETV3.

As for AGGCCT, the binding signal with ELK1 worked out at 0.964; in the test with ELK3, 1.01; in the test with SPIC, 0.943; with ETS2, 0.998; in the test with ETV3, 0.893.

As to CGGTGT, the binding signal with ELK1 amounted to 0.779; in the test with ELK3, 0.742; in the test with SPIC it was 0.744; in the test with ETS2, 0.742; in the test with ETV3, 0.729.

As for GCAGGG, the binding signal in the test with ELK1 is 0.663; in the test with ELK3 it was 0.632; with SPIC it was 0.627; in the test with ETS2, 0.62; with ETV3 it was 0.609.

Take ACGGAC: the binding signal came to 0.87 in the test with ELK1; 0.861 in the test with ELK3; 0.744 with SPIC; 0.815 in the test with ETS2; 0.9 in the test with ETV3.

For the origin of these results see article PMC7862700.
